Data taken from PubChem BioAssay AID330 (DTP/NCI, 2004).
The list does not hold the whole screen: it gathers tests that were run many times, whatever their T/C, doses with no T/C, and many T/C values between a quarter and a half above the control. Further doses and runs are listed elsewhere. T/C gives the treated animals as a percentage of the vehicle group. Some entries give survivors of the animals treated and no T/C: the source files T/C as zero there, which appears to mark a toxic dose or a test without result, not a measured value. Some survivor counts are full or nearly so, which does not show that the dose was tolerated: survival well below the control is almost never listed, so the zero probably covers shortened survival too. Survivors were counted at the toxicity check, usually on the fifth day, unless a day is given; later deaths do not show. Schedules are NCI's codes, read here as Q, the interval in days (D) or hours (H), X, the number of doses. For survival time, this PubChem deposit counts one and a half times the control or more as active, and values a quarter to a half above the control carry no call in these data; other NCI protocols may use other cut-offs. Some doses were run more than once; the values are given in rising order.

System: P388 leukemia ip, CD2F1 mice, survival T/C
Test: NCI In Vivo Anticancer Drug Screen. Data for tumor model P388 Leukemia (intraperitoneal) in CD2F1 (CDF1) mice
Conditions: T/C endpoint: median survival time, higher T/C = longer survival
[1] = dose: 100.0 mg/kg/injection, schedule: Q01DX009 (ip), vehicle: saline with Tween-80

Question: For `CC(=O)Nc1cc(NC(C)=O)cc(N(CCCl)CCCl)c1`, which T/C (dose: 6.25 mg/kg/injection, schedule: Q01DX009 (ip), vehicle: water) is on record?
Answer: Its T/C is 128 and 129 % of control.

Question: And the T/C (dose: 11.0 mg/kg/injection, schedule: Q01DX009 (ip), vehicle: water)?
Answer: Its T/C is 141 % of control.

Question: And the T/C (dose: 12.5 mg/kg/injection, schedule: Q01DX009 (ip), vehicle: water)?
Answer: Its T/C is 142 % of control.

Question: And the survivor count (dose: 100.0 mg/kg/injection, schedule: Q01DX009 (ip), vehicle: water)?
Answer: Its survivor count is 6 of 6.

Question: Which survivor count (dose: 400.0 mg/kg/injection, schedule: Q04DX002 (ip), vehicle: saline with Tween-80) does the source give for `O=C(Oc1cccc2cccnc12)c1ccc2ccccc2n1` here?
Answer: The survivor count was 4 of 6.

Question: How did the survivor count (dose: 25.0 mg/kg/injection, schedule: Q01DX005 (ip), vehicle: Klucel (hydroxypropylcellulose) (HPC)) turn out when `O=C1c2ccccc2C(=O)c2c1nc1sccn21` was run?
Answer: The survivor count was 5 of 5.

Question: And the survivor count (dose: 50.0 mg/kg/injection, schedule: Q01DX005 (ip), vehicle: Klucel (hydroxypropylcellulose) (HPC))?
Answer: The survivor count was 5 of 5.

Question: And the survivor count (dose: 100.0 mg/kg/injection, schedule: Q01DX005 (ip), vehicle: Klucel (hydroxypropylcellulose) (HPC))?
Answer: The survivor count was 2 of 5.

Question: And the survivor count (dose: 200.0 mg/kg/injection, schedule: Q01DX005 (ip), vehicle: Klucel (hydroxypropylcellulose) (HPC))?
Answer: The survivor count was 0 of 5.

Question: For `NC1=NC(O)C=C1` (centres undefined), which survivor count (dose: 50.0 mg/kg/injection, schedule: Q01DX005 (ip), vehicle: saline) is on record?
Answer: The survivor count was 3 of 6.

Question: What about the survivor count (dose: 100.0 mg/kg/injection, schedule: Q01DX005 (ip), vehicle: saline) of the same compound?
Answer: The survivor count was 0 of 6.

Question: Which survivor count (dose: 25.0 mg/kg/injection, schedule: Q01DX009 (ip), vehicle: saline) does the source give for `CNCCCC1c2ccccc2C=Cc2ccccc21` here?
Answer: The survivor count was 6 of 6.

Question: And the survivor count (dose: 50.0 mg/kg/injection, schedule: Q01DX009 (ip), vehicle: saline)?
Answer: The survivor count was 5 of 6.

Question: For `CCCCCCC1NC1Cc1ccc(Cl)cc1` (centres undefined), which survivor count [1] is on record?
Answer: Its survivor count is 0 of 6.

Question: And the survivor count (dose: 200.0 mg/kg/injection, schedule: Q01DX009 (ip), vehicle: saline with Tween-80)?
Answer: The survivor count was 0 of 6.

Question: What about the survivor count (dose: 400.0 mg/kg/injection, schedule: Q01DX009 (ip), vehicle: saline with Tween-80) of the same compound?
Answer: The survivor count was 0 of 6.

Question: Which survivor count (dose: 400.0 mg/kg/injection, schedule: Q04DX002 (ip), vehicle: Klucel (hydroxypropylcellulose) (HPC)) does the source give for `Cc1ccc2c(c1)nc(-c1ccccn1)n2CCc1ccccn1` here?
Answer: The survivor count was 6 of 6.

Question: Which survivor count (dose: 240.0 mg/kg/injection, schedule: Q01DX005 (ip), vehicle: saline) does the source give for `CCCCC(CC)COCCCNCC(=O)O` (centres undefined) here?
Answer: The survivor count was 0 of 6.

Question: With `CC1=CC(=C(c2ccc(N)cc2)c2ccc(N)cc2)C=CC1=N` as the compound, how does the T/C (dose: 3.12 mg/kg/injection, schedule: Q01DX005 (ip), vehicle: water) read?
Answer: Its T/C is 129 % of control.

Question: What about the T/C (dose: 6.25 mg/kg/injection, schedule: Q01DX005 (ip), vehicle: saline) of the same compound?
Answer: Its T/C is 131 % of control.

Question: What about the T/C (dose: 6.25 mg/kg/injection, schedule: Q01DX005 (ip), vehicle: water) of the same compound?
Answer: Its T/C is 125 % of control.

Question: And the survivor count (dose: 12.5 mg/kg/injection, schedule: Q01DX005 (ip), vehicle: saline)?
Answer: Its survivor count is 6 of 6.

Question: And the survivor count (dose: 50.0 mg/kg/injection, schedule: Q01DX005 (ip), vehicle: saline with Tween-80)?
Answer: Its survivor count is 0 of 5.

Question: And the survivor count (dose: 100.0 mg/kg/injection, schedule: Q01DX005 (ip), vehicle: saline with Tween-80)?
Answer: The survivor count was 0 of 5.

Question: What about the survivor count (dose: 200.0 mg/kg/injection, schedule: Q01DX005 (ip), vehicle: saline with Tween-80) of the same compound?
Answer: The survivor count was 0 of 5.

Question: For `C=CCNC1=C2C[C@@H](C)C[C@H](OC)[C@H](O)[C@@H](C)/C=C(\C)[C@H](OC(N)=O)[C@@H](OC)/C=C\C=C(/C)C(=O)NC(=CC1=O)C2=O`, which survivor count (dose: 25.0 mg/kg/injection, schedule: Q01DX009 (ip), vehicle: distilled water + Tween-80) is on record?
Answer: Its survivor count is 5 of 6.

Question: How did the T/C (dose: 0.78 mg/kg/injection, schedule: Q01DX005 (ip), vehicle: water) turn out when `O=NN(CCCl)C(=O)NCCO` was run?
Answer: The T/C was 138 % of control.

Question: And the survivor count (dose: 12.5 mg/kg/injection, schedule: Q01DX005 (ip), vehicle: water)?
Answer: Its survivor count is 6 of 6.

Question: And the survivor count (dose: 25.0 mg/kg/injection, schedule: Q01DX005 (ip), vehicle: water)?
Answer: Its survivor count is 4 of 6.

Question: What about the survivor count (dose: 50.0 mg/kg/injection, schedule: Q01DX005 (ip), vehicle: water) of the same compound?
Answer: Its survivor count is 2 of 6.

Question: And the survivor count (dose: 100.0 mg/kg/injection, schedule: Q01DX005 (ip), vehicle: water)?
Answer: The survivor count was 0 of 6.

Question: Which results are given for `CCOCN(COCC)c1ccc(Cl)cc1`?
Answer: T/C (dose: 50.0 mg/kg/injection, schedule: Q01DX009 (ip), vehicle: saline with Tween-80): 126 % of control; T/C [1]: 145 % of control

Question: How did the survivor count (dose: 240.0 mg/kg/injection, schedule: Q01DX005 (ip), vehicle: Klucel (hydroxypropylcellulose) (HPC)) turn out when `CCOC(=O)NC(=N/C(=C/c1cccc(C)n1)c1ccccc1)c1ccccc1` was run?
Answer: Its survivor count is 6 of 6.
